PubChem BioAssay AID1259308, NCATS | 2017

Aim: 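Genes whose loss raises luciferase production in HEK293 cells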 (primary screen)
Cell system: human HEK293 embryonic kidney cells stably expressing firefly luciferase (HEK-CMV-Luc2-Hygro)
Reagent: single siRNA against human genes, 0.8 pmol siRNA per well
Time to read-out: 72 h
Detection: 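Reporter luminescence and viable-cell signal on separate replicate plates, given as percent of non-targeting control and median/MAD z-scores, plus per-cell luciferase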
Reading the numbers: total luciferase, z-score and total luciferase, % of control: higher = more reporter protein produced; luciferase per cell, z-score: higher = more reporter output per viable cell
Active means: 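Active when the median/MAD z-score for overall luciferase is greater than 3; a gene was taken forward for validation with new siRNAs if at least two of its three siRNAs passed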
Calls: active = raised luciferase; inactive = no rise
The whole screen tested about 59,000 reagents; shown is an unselected part. Over the whole deposit, about 1,510 (2.6%) are marked active. 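Calls use total luciferase alone and ignore viability, so some active siRNAs may act by altering cell number.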 A number with no mark means an inactive call. The numbers tell different reagents against one gene apart. Further read-outs or replicates are left out here. Reagent sequences are not shown.

| target gene | siRNA no. | total luciferase, z-score | total luciferase, % of control | luciferase per cell, z-score |
| --- | --- | --- | --- | --- |
| CHD2 | 1 | -0.039 | 81.1 | -0.486 |
| CHD2 | 2 | 0.545 | 92.7 | 0.00888 |
| CHD2 | 3 | 0.184 | 85.5 | -0.231 |
| PSEN1 | 1 | 1.49 | 111 | 1.33 |
| PSEN1 | 2 | -1.44 | 53.3 | -1.23 |
| PSEN1 | 3 | 0.861 | 99 | 0.465 |
| CCDC196 | 1 | -0.485 | 72.2 | -0.29 |
| CCDC196 | 2 | -0.692 | 68.1 | -0.848 |
| CCDC196 | 3 | -0.109 | 79.7 | -0.392 |
| CCDC43 | 1 | -0.448 | 73 | -0.632 |
| CCDC43 | 2 | 2.48 | 131 | 1.54 |
| CCDC43 | 3 | 1.02 | 102 | 0.725 |
| FSD2 | 1 | -0.165 | 78.6 | 0.346 |
| FSD2 | 2 | -0.786 | 66.3 | 0.29 |
| FSD2 | 3 | -0.546 | 71 | -0.213 |
| DVL2 | 1 | -1.36 | 54.9 | -1.85 |
| DVL2 | 2 | -0.146 | 79 | -0.537 |
| DVL2 | 3 | -1.72 | 47.7 | -1.38 |
| ZNF76 | 1 | 0.0636 | 83.2 | -0.146 |
| ZNF76 | 2 | -0.77 | 66.6 | -0.136 |
| ZNF76 | 3 | 0.91 | 100 | 0.614 |
| DENND4C | 1 | -0.433 | 73.3 | -0.818 |
| DENND4C | 2 | -0.107 | 79.8 | -0.419 |
| DENND4C | 3 | -0.265 | 76.6 | 0.833 |

4 entries already listed, sorted by “total luciferase, % of control”, highest first.
| target gene | siRNA no. | total luciferase, z-score | total luciferase, % of control | luciferase per cell, z-score |
| --- | --- | --- | --- | --- |
| CCDC196 | 3 | -0.109 | 79.7 | -0.392 |
| CCDC43 | 1 | -0.448 | 73 | -0.632 |
| CCDC196 | 1 | -0.485 | 72.2 | -0.29 |
| CCDC196 | 2 | -0.692 | 68.1 | -0.848 |
